# PubChem BioAssay AID504467 (National Center for Advancing Translational Sciences (NCATS), 2011)
# Hit rate of the full screen: of about 330,000 compounds, about 7,700 (2.3%) were called active. The shares of active, inactive and inconclusive entries below differ from those in the screen. The call rests on the fitted dose curve; in most records, active means well fitted inhibition curve with a large enough effect; inconclusive means small, poorly fitted or top-dose-only effect, or effect the other way; inactive means flat fitted curve, though single readings scatter. Potencies of inconclusive entries are doubtful fits and often do not repeat.
# Assay: qHTS screen for small molecules that inhibit ELG1-dependent DNA repair in human embryonic kidney (HEK293T) cells expressing luciferase-tagged ELG1; further: nearly all actives have a fitted effect of over 55% in size
# Settings: HEK293T ELG1-luciferase reporter, luminescence, 16 h, DNA damage induced by 5-fluorouridine; series mostly up to 46.1 µM
# Procedure, shortened: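 HEK293T cells expressing luciferase-tagged ELG1 (2,000/well) received 5-Fluorouridine plus compound or DMSO for 16 hr at 37 °C. Luciferase was read by ONE-Glo luminescence after 30 min at room temperature.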
# Potency means the concentration at half of the fitted maximal effect.
row,Structure (SMILES),Potency
1,CC(=O)NC(c1cccs1)c1cc([N+](=O)[O-])c2cccnc2c1O (stereo unspecified),"inconclusive: 32.6 µM [inhibitor, single point]"
2,CCOC(=O)N1CCN(C(=O)N2CCOCC2)CC1,inactive
3,CC1(NC(=O)CCNC(=O)c2ccc(C(C)(C)C)cc2)CCS(=O)(=O)C1 (stereo unspecified),inactive
4,Clc1ccc(-c2nc(-c3cc4cc(Cl)ccc4o3)cs2)cc1,inactive
5,Cc1cc(C)n(-c2ccc(C(=O)Nc3ccccn3)cc2)n1,"inconclusive: 2.31 µM [activator, partial curve]"
6,O=[N+]([O-])c1ccc(-c2nc(C(Cl)Cl)c3ccccc3n2)cc1,active: 5.17 µM
7,CCOC(=O)c1c(-c2ccc(C)o2)csc1NC(=S)NC(=O)N(C)C,"inconclusive: 13 µM [inhibitor, partial curve, poor fit]"
8,Cc1ccc(CN(C)C2CCN(C)CC2)cc1,inactive
9,O=C(COC(=O)c1ccc(O)cc1O)NC1CC1,inactive
10,COc1ccc(OC)c2[nH]c(=O)c(CCNC(=O)c3ccc(S(=O)(=O)N4CCCC4)cc3)cc12,"inconclusive: 16.4 µM [inhibitor, partial curve]"
11,COc1ccc2cc(CCNC(=O)c3ccc4c(c3)OCO4)c(=O)[nH]c2c1,"inconclusive: 29.1 µM [inhibitor, single point]"
12,CCOC(=O)N1C(=O)[C@](CC)(c2ccccc2)N1C(=O)OCC,inactive
13,O=C(c1ccccc1SCc1ccccc1)N1CCOCC1,"inconclusive: 20.6 µM [inhibitor, single point]"
14,COC(=O)c1ccc(Nc2ncnc3sccc23)cc1,"inconclusive: 23.1 µM [activator, partial curve, poor fit]"
15,CC(=O)C(C(C)=O)C(c1ccccc1)c1nc2ccccc2[nH]c1=O (stereo unspecified),inactive
16,NC(=O)c1ccc(NC(=O)CSc2nc3ccccc3c(=O)n2CCCN2CCOCC2)cc1,"inconclusive: 20.6 µM [activator, partial curve]"
17,CCC(=O)Oc1ccc(C(=O)Nc2ccc3c(c2)OCO3)cc1,"inconclusive: 5.8 µM [activator, partial curve]"
18,CC#CCCCC(=O)Nc1ccc(C(=O)O)cc1,"inconclusive: 22.4 µM [inhibitor, single point]"
19,O=C(Nc1sc2c(c1C(=O)O)CCC2)c1ccco1,"inconclusive: 18.4 µM [activator, partial curve]"
20,CCOC(=O)C1=C(C)NC(C)=C(C(=O)OCC)C1C(=O)OCC(=O)NC(C)C,"inconclusive: 23.1 µM [inhibitor, single point]"
21,CCOC(=O)C(C)(C)N(Cc1ccc(Cl)cc1)S(=O)(=O)c1ccc(Cl)c([N+](=O)[O-])c1,active: 18.4 µM
22,O=C(Nc1ccc(Br)cc1)c1cnccn1,"inconclusive: 20.6 µM [activator, single point]"
23,Cc1sc2ncnc(N3CCN(S(=O)(=O)c4ccc(C(C)(C)C)cc4)CC3)c2c1C,"inconclusive: 2.91 µM [inhibitor, full curve]"
24,O=C(CNC1CCCCC1)Nc1cccc(C(F)(F)F)c1,inactive

row,Structure (SMILES),Potency
1,CCOC(=O)C1=C(C)NC(C)=C(C(=O)OCC)C1C(=O)OCC(=O)N(C)C,inactive
2,COc1ccc(-c2cn3cccnc3n2)cc1NC(=O)c1cc(OC)c(OC)c(OC)c1,active: 8.2 µM
3,O=C(CNC(=O)c1ccccc1F)OCCCOC(=O)CNC(=O)c1ccccc1F,"inconclusive: 29.1 µM [activator, partial curve, poor fit]"
4,O=C(NNc1c2ccccc2nc2ccccc12)C12CC3CC(CC(C3)C1)C2,"inconclusive: 20.6 µM [activator, single point]"
5,Cc1cccc(C(=O)NNC(=O)c2ccccc2)c1,"inconclusive: 20.6 µM [activator, single point]"
6,Cc1ccc2cc(NC(=O)Cc3ccccc3)ccc2n1,"inconclusive: 10.3 µM [activator, partial curve]"
7,COc1cccc(-c2cc(C(=O)NC3CCCC3)no2)c1,"inconclusive: 7.31 µM [activator, partial curve]"
8,COc1cccc(-c2cc3nc(-c4ccccc4)cc(=O)n3[nH]2)c1,"inconclusive: 29.1 µM [activator, single point]"
9,COc1ccc2nc(NC(=O)c3ccc(NC(=O)C4CCCO4)cc3)sc2c1 (stereo unspecified),"inconclusive: 29.1 µM [inhibitor, single point]"
10,COc1ccc(NS(=O)(=O)c2ccc3c(c2)OCCO3)cc1OC,active: 2.31 µM
11,CCc1ccc(O)c(N=Cc2ccccc2O)c1,inactive
12,CCN(CC)c1ccc(NC(=O)c2ccc(S(=O)(=O)N3CCOCC3)cc2)cc1,"inconclusive: 18.3 µM [inhibitor, partial curve]"
13,Cc1ccc(S(=O)(=O)N(C)C)cc1NC(=S)NCCc1ccccn1,"inconclusive: 18.3 µM [inhibitor, partial curve, poor fit]"
14,Cc1ccsc1C(=O)OCc1csc(-c2ccccc2)n1,"inconclusive: 8.2 µM [activator, partial curve]"
15,CCOC(=O)c1sc(-c2ccccc2)nc1C,"inconclusive: 0.231 µM [activator, partial curve, poor fit]"
16,O=C(/C=C/c1c(F)cccc1Cl)Nc1ccncc1,"inconclusive: 8.2 µM [activator, partial curve]"
17,CCC1Sc2ccccc2N(CC(=O)NCCC2=CCCCC2)C1=O (stereo unspecified),"inconclusive: 29.1 µM [inhibitor, single point]"
18,COc1ccc(-n2c(=S)[nH]c3cc(C(=O)NCCCN4CCOCC4)ccc3c2=O)cc1OC,inactive
19,CCC(C)Sc1ccc(-c2nc3cc(C)ccn3c2NC2CCCCC2)cc1 (stereo unspecified),inactive
20,CC(=O)C1C(c2ccc(F)cc2)c2c(noc2C)CC1(C)O (stereo unspecified),"inconclusive: 20.6 µM [activator, single point]"
21,Cc1nnc(NC(=O)CSc2nccn2Cc2ccccc2)s1,inactive
22,O=C(CSc1ncnc2c1cnn2-c1ccc(Cl)cc1)NCc1ccc2c(c1)OCO2,"inconclusive: 23.1 µM [activator, single point]"
23,Cc1ccc(-c2cn3c(=O)cc(C)[nH]c3n2)cc1,"inconclusive: 15.8 µM [activator, partial curve, poor fit]"
24,COc1ccc(NC(=O)c2cc(S(=O)(=O)N3CCOCC3)ccc2C)cc1S(=O)(=O)N1CCOCC1,"inconclusive: 9.2 µM [inhibitor, partial curve, poor fit]"

# Reformatted with bars between the fields: entries from further up.
row | Structure (SMILES) | Potency
8 | Cc1ccc(CN(C)C2CCN(C)CC2)cc1 | inactive
12 | CCN(CC)c1ccc(NC(=O)c2ccc(S(=O)(=O)N3CCOCC3)cc2)cc1 | inconclusive: 18.3 µM [inhibitor, partial curve]

# Further records.

row,Structure (SMILES),Potency
1,CC(=O)c1sc(C(C)(C)C)cc1NC(=O)CCC(=O)O,inactive
2,Cc1cc(Nc2ccc([N+](=O)[O-])cc2)c2ccccc2n1,inactive
3,C=CCNC(=O)C(=O)Nc1cc2c3c(c1)CCC(=O)N3CCC2,"inconclusive: 20.6 µM [activator, partial curve]"
4,O=C(C1=C[C@@H]2[C@H]3C(=O)N(c4ccccc4)C(=O)[C@H]3[C@@H](C(=O)c3ccc(Cl)cc3)N2C=C1)c1ccccc1,inactive
5,Cc1ccc(NC(=O)c2cc3c(s2)CCCC3)cc1S(=O)(=O)Nc1ccccc1Cl,active: 23.1 µM
6,C/C(=N\NC(=O)c1cc(-c2ccc(Cl)s2)[nH]n1)c1ccncc1,inactive
7,CCOc1ncccc1C(=O)OCc1csc(CC(=O)Nc2ccccc2C)n1,inactive
8,CC1CC(C)CN(C(=O)Nc2ccccc2F)C1 (stereo unspecified),inactive
9,CN(C)CCOc1ccc(-c2c(-c3ccccc3)sc3ccccc23)cc1,"inconclusive: 29.1 µM [inhibitor, single point]"
10,O=C(N[C@@H](Cc1ccccc1)C(=O)NCc1ccc(F)cc1)C1CCNCC1,inactive
11,COc1ccc(C(=O)NCC(=O)N/N=C/C(C)=C/c2ccco2)cc1OC,"inconclusive: 20.6 µM [inhibitor, single point]"
12,Cc1cccc(NC(=S)NC(=O)/C=C/c2ccco2)n1,"inconclusive: 5.8 µM [activator, partial curve, poor fit]"
13,O=C(c1ccco1)N1CCN(c2nc3ccccc3c(=O)n2-c2ccccc2)CC1,active: 20.6 µM
14,CN(C(=O)c1ccco1)c1nnc(C23CC4CC(CC(C4)C2)C3)s1,"inconclusive: 5.17 µM [activator, partial curve]"
15,COC(=O)c1ccc(COc2ccccc2/C=C(\C#N)C(=O)Nc2ccc(C)cc2C)cc1,"inconclusive: 23.1 µM [activator, single point]"
16,COc1ccccc1-c1cc(C2CC2)nc(N)c1C#N,"inconclusive: 7.31 µM [activator, partial curve]"
17,COc1ccc(/C=C2\SC(=O)N(CCC(=O)Nc3ccc(S(=O)(=O)Nc4nccs4)cc3)C2=O)cc1,"inconclusive: 18.4 µM [activator, single point]"
18,O=C(CN1CCN(c2ncc(C(F)(F)F)cc2Cl)CC1)N1CCN(c2ncc(C(F)(F)F)cc2Cl)CC1,"inconclusive: 29.1 µM [inhibitor, single point]"
19,CCCNC(=O)c1cc2c3ccccc3n(C)c2s1,"inconclusive: 25.9 µM [inhibitor, single point]"
20,CCCC(O)(c1ccc(CC)cc1)C(CN1CCOCC1)c1ccccc1 (stereo unspecified),"inconclusive: 29.1 µM [inhibitor, single point]"
21,Cc1ccc(C(=O)OCC(=O)N2CCc3ccccc32)cc1,"inconclusive: 11.2 µM [activator, partial curve, poor fit]"
22,N#C/C(=C\c1cccc(NC(=O)c2ccccc2Cl)c1)C(=O)NCCc1ccccc1,active: 14.6 µM
23,CCOC(=O)C1=C(C)N(CC)C(=S)NC1c1ccccc1OC(F)F (stereo unspecified),"inconclusive: 23.1 µM [inhibitor, partial curve, poor fit]"

# Filtered by structure, the compounds so far with a nitro group on carbon
row,Structure (SMILES),Potency
1,CC(=O)NC(c1cccs1)c1cc([N+](=O)[O-])c2cccnc2c1O (stereo unspecified),"inconclusive: 32.6 µM [inhibitor, single point]"
6,O=[N+]([O-])c1ccc(-c2nc(C(Cl)Cl)c3ccccc3n2)cc1,active: 5.17 µM
21,CCOC(=O)C(C)(C)N(Cc1ccc(Cl)cc1)S(=O)(=O)c1ccc(Cl)c([N+](=O)[O-])c1,active: 18.4 µM
2,Cc1cc(Nc2ccc([N+](=O)[O-])cc2)c2ccccc2n1,inactive
